pKi: −log10 of the molar value. Several values for one entry are separate records, joined by “and”; a condition that tells them apart may be missing. Equal values may be shown once.
Biological target: Sodium-dependent dopamine transporter (Rattus norvegicus, UniProt P23977)

Chains of the proteins cited; added tags and fusions are not shown.
UniProt P23977, whole entry: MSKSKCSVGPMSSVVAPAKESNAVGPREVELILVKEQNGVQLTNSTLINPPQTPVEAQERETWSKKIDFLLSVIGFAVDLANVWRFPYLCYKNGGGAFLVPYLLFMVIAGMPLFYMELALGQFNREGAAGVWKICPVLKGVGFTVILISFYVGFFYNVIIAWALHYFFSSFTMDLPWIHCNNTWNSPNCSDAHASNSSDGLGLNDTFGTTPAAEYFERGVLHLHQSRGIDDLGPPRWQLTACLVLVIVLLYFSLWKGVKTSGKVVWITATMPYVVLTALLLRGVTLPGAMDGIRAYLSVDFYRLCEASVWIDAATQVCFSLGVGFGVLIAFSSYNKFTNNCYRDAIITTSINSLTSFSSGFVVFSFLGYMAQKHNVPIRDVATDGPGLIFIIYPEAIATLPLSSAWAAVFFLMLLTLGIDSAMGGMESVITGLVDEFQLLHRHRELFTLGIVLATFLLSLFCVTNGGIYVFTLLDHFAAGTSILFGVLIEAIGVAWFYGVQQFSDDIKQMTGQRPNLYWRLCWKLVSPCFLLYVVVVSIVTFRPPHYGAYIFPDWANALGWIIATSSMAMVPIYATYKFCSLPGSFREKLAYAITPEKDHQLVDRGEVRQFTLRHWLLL

- pKi: 5.92 and < 5.00
Structure (SMILES): CNCCCC12CCC(c3ccccc31)c1ccccc12 [Ludiomil]
